In PubChem BioAssay AID330 (DTP/NCI, 2004):
The list shows only some results of the screen, not a fair sample: it is rich in T/C values a quarter to a half above the control, in often repeated tests (any T/C) and in doses without a T/C. Other doses and runs of a compound stand elsewhere. T/C: endpoint of the treated group in % of that of the vehicle group. Some entries give survivors of the animals treated and no T/C: the source holds a T/C of zero for them, seemingly a mark for toxic or unscored doses. Some survivor counts are full or nearly so, which does not show that the dose was tolerated: survival well below the control is almost never listed, so the zero probably covers shortened survival too. Counts of survivors are from the toxicity check (mostly the fifth day) where no day follows; animals may have died later. Schedule codes are those of the source, taken here to give the interval after Q, in days (D) or hours (H), and the number of doses after X. Some entries were tested several times; their values stand side by side, smallest first. Counts like (3×) count equal records among those shown. For survival time, the PubChem record calls one and a half times the control and up active, and a quarter to a half above the control has no call in these data; cut-offs in other NCI protocols can differ. Some T/C values are followed by the survivors on the day toxicity was checked, most often the fifth; where none is given, no animal had died by that day.

Tested on: P388 leukemia ip, CD2F1 mice, survival T/C
Assay: NCI In Vivo Anticancer Drug Screen. Data for tumor model P388 Leukemia (intraperitoneal) in CD2F1 (CDF1) mice
Conditions: T/C endpoint: median survival time, higher T/C = longer survival
[1] = dose: 100.0 mg/kg/injection, schedule: Q01DX001 (ip), vehicle: Klucel (hydroxypropylcellulose) (HPC)
[2] = dose: 200.0 mg/kg/injection, schedule: Q01DX001 (ip), vehicle: Klucel (hydroxypropylcellulose) (HPC)
[3] = dose: 400.0 mg/kg/injection, schedule: Q01DX001 (ip), vehicle: Klucel (hydroxypropylcellulose) (HPC)

**Q.** Which results are given for CC(CN1CC(=O)NC(=O)C1)N1CC(=O)NC(=O)C1 (stereo not given)?
**A.** T/C (dose: 75.0 mg/kg/injection, schedule: Q04DX003 (ip), vehicle: Klucel (hydroxypropylcellulose) (HPC)): 104, 106, 111, 118 (2×), 122, 123 (2×), 124, 125 (4×), 126 (2×), 127 (2×), 128 (3×), 129 (3×), 131, 132 (2×), 133, 134, 137 (2×), 140, 141, 145, 149 % of control; T/C [1]: 96, 103 [5 of 6 alive], 107, 110, 111, 112 (5×), 113 (3×), 114 (2×), 115 (2×), 116 (2×), 119 (3×), 121 (2×), 123, 125, 127, 130 (2×), 131 % of control (2×); survivor count [1]: 6 of 6; T/C (dose: 100.0 mg/kg/injection, schedule: Q01DX005 (ip), vehicle: Klucel (hydroxypropylcellulose) (HPC), evaluated on day 30): 87, 90, 114, 119, 123, 148, 157 (2×), 164, 165, 166 (2×), 168, 169, 172, 173 [5 of 6 alive], 174 (3×), 176 (2×), 177 (2×), 179 (2×), 182 (2×), 183, 199, 201, 208 % of control; T/C (dose: 100.0 mg/kg/injection, schedule: Q01DX005 (ip), vehicle: Klucel (hydroxypropylcellulose) (HPC), evaluated on day 35): 200 % of control; survivor count (dose: 100.0 mg/kg/injection, schedule: Q01DX005 (ip), vehicle: Klucel (hydroxypropylcellulose) (HPC)): 3 of 3; T/C (dose: 100.0 mg/kg/injection, schedule: Q01DX009 (ip), vehicle: Klucel (hydroxypropylcellulose) (HPC), evaluated on day 30): 86, 88, 90, 93, 94, 95, 100 (2×), 102, 104 (2×), 107, 112, 120, 121, 132, 133, 141, 180 [5 of 6 alive], 182, 186, 193, 196, 215, 220, 229, 238 % of control; T/C (dose: 100.0 mg/kg/injection, schedule: Q01DX009 (ip), vehicle: Klucel (hydroxypropylcellulose) (HPC), evaluated on day 35): 93 % of control; survivor count (dose: 100.0 mg/kg/injection, schedule: Q01DX009 (ip), vehicle: Klucel (hydroxypropylcellulose) (HPC)): 2 of 3, 5 of 6, 3 of 3 (2×), 6 of 6; T/C (dose: 100.0 mg/kg/injection, schedule: Q04DX002 (ip), vehicle: Klucel (hydroxypropylcellulose) (HPC)): 127 and 137 % of control; T/C (dose: 108.0 mg/kg/injection, schedule: Q04DX002 (ip), vehicle: saline): 140 % of control; T/C (dose: 108.0 mg/kg/injection, schedule: Q04DX003 (ip), vehicle: saline): 132 and 133 % of control; T/C (dose: 130.0 mg/kg/injection, schedule: Q04DX002 (ip), vehicle: saline with Tween-80): 134 % of control; T/C (dose: 150.0 mg/kg/injection, schedule: Q04DX002 (ip), vehicle: Klucel (hydroxypropylcellulose) (HPC), evaluated on day 30): 108, 112, 117, 120, 122, 123, 124, 125, 126 (3×), 128, 130, 135 (2×), 136 (2×), 137 (2×), 140, 143, 144 (2×), 147, 152, 154, 155, 157, 159, 160, 175 % of control; T/C (dose: 150.0 mg/kg/injection, schedule: Q04DX002 (ip), vehicle: Klucel (hydroxypropylcellulose) (HPC), evaluated on day 35): 119, 122, 131 % of control; survivor count (dose: 150.0 mg/kg/injection, schedule: Q04DX002 (ip), vehicle: Klucel (hydroxypropylcellulose) (HPC)): 3 of 3 and 6 of 6; T/C (dose: 150.0 mg/kg/injection, schedule: Q04DX003 (ip), vehicle: Klucel (hydroxypropylcellulose) (HPC)): 116, 117, 118, 123, 125, 126, 131, 133, 134, 135, 136 [5 of 6 alive], 137, 139, 142 (2×), 143, 144 (3×), 145 (2×), 146 (2×), 147, 149, 150, 151, 152, 156 (2×), 158, 163, 165, 171 % of control; T/C [2]: 108, 109, 110, 112, 118 (3×), 119, 120, 121 (2×), 122 (3×), 123 (2×), 125, 126 (2×), 127, 128 (2×), 130, 131, 134 (2×), 137 (2×), 140, 162, 172 % of control; survivor count [2]: 6 of 6; T/C (dose: 300.0 mg/kg/injection, schedule: Q04DX002 (ip), vehicle: Klucel (hydroxypropylcellulose) (HPC), evaluated on day 30): 101, 115, 133 (2×), 135, 139, 147, 148, 152, 154, 162, 165 (2×), 166, 169, 176, 179, 181, 182 (2×), 188, 197, 200 (2×), 201 (2×), 203, 204, 206, 212, 223 % of control; T/C (dose: 300.0 mg/kg/injection, schedule: Q04DX002 (ip), vehicle: Klucel (hydroxypropylcellulose) (HPC), evaluated on day 35): 139, 186, 203 % of control; survivor count (dose: 300.0 mg/kg/injection, schedule: Q04DX002 (ip), vehicle: Klucel (hydroxypropylcellulose) (HPC)): 5 of 6 and 3 of 3; T/C (dose: 300.0 mg/kg/injection, schedule: Q04DX003 (ip), vehicle: Klucel (hydroxypropylcellulose) (HPC)): 110, 128, 131, 140, 144 [5 of 6 alive], 145 [4 of 6 alive], 154, 155, 158 (2×), 159, 163 (2×), 174, 181, 182 (2×), 186, 192, 194, 195 (3×), 205, 209 (2×), 213, 215, 216, 226 (2×), 229, 240, 254 % of control; T/C [3]: 96, 105 [2 of 3 alive], 110, 112 (2×), 126, 131, 132, 137 (3×), 138, 140, 142, 145, 150 (2×), 153, 155, 156, 156 [4 of 6 alive], 156 [5 of 6 alive], 160 (2×), 162, 175, 177, 190 % of control (2×); survivor count [3]: 5 of 6, 3 of 3, 6 of 6
